# Percent effect of library compounds

Chains of the proteins cited; added tags and fusions are not shown. Residues count along the entry.
UniProt Q8IDJ8, 1-583: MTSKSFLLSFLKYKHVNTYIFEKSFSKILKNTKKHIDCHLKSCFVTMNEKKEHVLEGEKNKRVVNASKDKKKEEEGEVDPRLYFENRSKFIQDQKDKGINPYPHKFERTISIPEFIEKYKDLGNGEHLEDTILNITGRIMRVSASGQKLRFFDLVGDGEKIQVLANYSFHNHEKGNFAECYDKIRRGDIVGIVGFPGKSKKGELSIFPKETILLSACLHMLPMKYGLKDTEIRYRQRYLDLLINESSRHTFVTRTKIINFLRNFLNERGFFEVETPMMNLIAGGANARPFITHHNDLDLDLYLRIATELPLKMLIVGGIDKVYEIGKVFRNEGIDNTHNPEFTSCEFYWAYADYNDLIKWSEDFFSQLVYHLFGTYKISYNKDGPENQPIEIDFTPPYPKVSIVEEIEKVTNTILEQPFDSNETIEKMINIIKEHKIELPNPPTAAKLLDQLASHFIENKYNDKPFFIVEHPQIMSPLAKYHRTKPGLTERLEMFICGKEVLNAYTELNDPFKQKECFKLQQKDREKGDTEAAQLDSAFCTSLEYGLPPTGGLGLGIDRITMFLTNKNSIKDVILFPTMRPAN

The filed quantity is “Percent Effect” (%).
The record does not define 0% and 100%; most values in the screen are far below 50% and negative numbers occur (in some assays of this library far below -100).
Compounds were drawn at random from those tested, without regard to their results.

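Enzyme assay of the cytosolic lysyl-tRNA synthetase in 384-well plates, read by luminescence. Target: Lysine-tRNA ligase, Plasmodium falciparum 3D7 (UniProt Q8IDJ8). Concentration: 30 µM. Higher reads as stronger inhibition, judged from the few compounds that gave an IC50. About 69,000 compounds were tested under these conditions; 0.071% (about 49) showed 50% or more at least once.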

compound	effect
Cn1cc(C(=O)NCc2cncc3c2CCN(S(C)(=O)=O)C3)cn1	1.377%
Cc1ccc2cc(C(=O)NCCN3CCS(=O)(=O)CC3)c(C)nc2c1	10.56%
CCN(C(C)=O)C1CCN(c2nccc(C3CCCC3)n2)C1 (stereo not given)	5.839%
CCn1cc(C(=O)Nc2ccccc2C(=O)OC)cn1	-4.39%
O=C(CCc1cnn(-c2ccccc2)c1)N1CCCC(n2cccn2)C1 (stereo not given)	7.628%
Cc1nc(N(C)C)nc(N(C)CCc2ccncc2)c1C	3.492%
Cc1ccc(C(C)NC(=O)CSCC(N)=O)cc1 (stereo not given)	8.002%
Cc1cc(C)n(CC2CCCN2C(=O)c2ccc(N(C)C)nn2)n1 (stereo not given)	0.427%
CC(=O)NCCc1ccc(S(=O)(=O)N(CC(C)C)C(C)C)s1	-8.337%
CN1CCN(C(CNC(=O)c2ccc(Cl)cc2F)c2cccs2)CC1 (stereo not given)	-3.347%
COCc1nc(CN2CC(C)(c3ccccc3)CCC2=O)no1 (stereo not given)	3.079%
Oc1cc(-c2cccs2)nc(C2CCCN(CC3=CCCOC3)C2)n1 (stereo not given)	0.3204%
O=C(C1CCOC1)N1C[C@H]2CN(Cc3ccccn3)C[C@H]2C1 (stereo not given in full)	-1.316%
CN(C)CCNc1cc(-c2ccc[nH]c2=O)c2cc[nH]c2n1	0.5835%
NC(=O)C(NC(=O)CSCc1ccc(Cl)s1)c1ccccc1 (stereo not given)	2.869%
O=S(=O)(C1CC1)N1CC[C@]2(C[C@H](OCC3CCOCC3)CO2)C1	-2.441%
CN(C)CCO[C@@H]1CC[C@H]2[C@H]1OCCN2C(=O)c1ccc(F)cc1	5.88%
O=C(c1cc(Cn2ccc3ccccc32)[nH]n1)N1CCOCC1	4.189%
CC(=O)N(Cc1ncc(C)o1)C1CCN(Cc2nccn2C)C1 (stereo not given)	0.4251%
CC(=O)N1CCCCC1c1nc(C)cc(-c2ccccc2C(=O)O)n1 (stereo not given)	1.799%
CN(C)CCOC[C@H]1CC[C@H]2[C@H](CCN2C(=O)c2ccoc2)O1	3.905%
CNC(=O)[C@@H]1C[C@@H](N)CN1C1CCN(c2ccccc2F)CC1	-0.192%
CCCn1ncc(C(=O)N2CCCC(OCc3ccccn3)C2)c1C (stereo not given)	-1.221%
CCN1C(=O)CCCC12CCCN(C(=O)c1ccsc1)C2 (stereo not given)	1.882%
O=C(Cn1cc(-c2ccccc2)ncc1=O)NC1CCCCC1	5.114%
COc1ccc(NC(=O)N2CCC(c3noc(C)n3)CC2)cc1C	1.934%
COc1ccccc1C(=O)Nc1ccc(OC2CCN(C)CC2)cc1	-0.5025%
Cc1nn(C)c(N2CCOCC2)c1CNC1CCS(=O)(=O)C1 (stereo not given)	4.61%
Cc1noc(CCNC(=O)C2CSCN2C(=O)C2CCCC2)n1 (stereo not given)	3.565%
Cc1n[nH]c(=O)c2c(NC(=O)CN3CCCC(C(F)(F)F)C3)oc(C)c12 (stereo not given)	1.078%
O=c1[nH]c(NCc2cccc(-c3ccccc3)c2)nc2c1CCNC2	1.506%
CCc1cnc(N)nc1N(C)CCc1cnn(C)c1	-0.6407%
CN(Cc1cnn(C)c1)C(=O)NCC1CCS(=O)(=O)C1 (stereo not given)	3.702%
CC(C)[C@]1(O)CN(C(=O)CNC(N)=O)C[C@H]1C	2.652%
NCC(CO)Cc1cccc(OC(F)(F)F)c1 (stereo not given)	-1.029%
O=C(Cc1csc(-c2ccoc2)n1)NCCCN1CCCCC1	-0.6083%
Cc1ccccc1NC(=O)NCCn1nc(C(F)(F)F)n(C)c1=O	2.933%
Cc1cccc(N2CCN(c3ccn4c(=O)[nH]nc4n3)CC2)c1C	7.145%
O=C(NCC(O)c1ccsc1)Nc1cccs1 (stereo not given)	0.6424%
CC(c1cc(F)ccc1F)N(C)CCS(=O)(=O)CCC(N)=O (stereo not given)	7.699%
O=C(CN1CCC(c2nnc(C(F)(F)F)o2)CC1)Nc1cccc(Cl)c1	-0.1457%
O=C(c1ccccc1)N1CCCn2c(CN3CCCCC3)nnc2C1	4.004%
Cc1cc(N(C)C)nc(N2CCN(C(C)c3nc(C)no3)CC2)n1 (stereo not given)	0.9939%
CC(C)c1nc(C2CCCN2C(=O)c2cc(Cl)c[nH]2)no1 (stereo not given)	5.439%
CN(C)c1ccc(C(=O)NCc2csc(Br)c2)cn1	4.368%
CCc1c(C)sc2ncnc(N3CC[C@@H](N4CCOCC4)[C@H](O)C3)c12	1.53%
c1ccc(Cc2nnc(CN3CCc4cncnc4C3)o2)cc1	-0.5428%
CCSC(C)C(=O)N1CCC(c2nn(C)c(=O)n2-c2ccccc2)CC1 (stereo not given)	2.782%
CCCc1nc(C)c(C(=O)Nc2cccc(C)n2)s1	-3.64%
Cc1ccc(F)cc1S(=O)(=O)N(C)CC(N)=O	9.936%
CCOC1CCN(C(=O)NCCN(C)C(=O)OC(C)(C)C)CC1	1.415%
CC(C)Cc1cc(NC(=O)c2cccnc2)n(C)n1	0.3436%
CCc1nc(CN(C)C(=O)CSC)no1	3.284%
Cc1nccn1C1CCCN(C(=O)COC2CCCC2)C1 (stereo not given)	1.041%
Cc1ccc(C(=O)NCCCN(C)S(C)(=O)=O)cc1-n1cccc1	1.693%
CCOCCC(=O)Nc1cccc(Oc2ccccn2)c1	-7.905%
Brc1cccc(C2(CNCc3cc[nH]c3)CCOCC2)c1	-1.206%
CCN1C(=O)CC[C@@H]2[C@H]1CCN2S(=O)(=O)Cc1ccc(C)cc1	1.853%
Cc1ccc([C@@H]2CN(S(=O)(=O)c3cccs3)C[C@H]2N(C)C)cc1	0.389%
CC(C)Nc1cccc(CC2CCN(S(C)(=O)=O)CC2)n1	-0.7445%
Cc1cccc(-c2nc(C)nn2CN2CCN(S(C)(=O)=O)CC2)c1	10.19%
CN1CCN(Cc2ccccc2CNC(=O)c2ccc(Br)cc2)CC1	6.547%
CN(Cc1nnc2n1CCC2)C(=O)Cc1ccc2c(c1)CCC2	-0.07763%
CN(C)c1nccc(N2CCO[C@H]3CN(Cc4ccco4)C[C@H]32)n1	0.5851%
COc1ccccc1C(=O)N1CCCC1c1nncn1CC(C)C (stereo not given)	0.4882%
Cn1ccnc1CN1CCC(Cn2cc(-c3ccncc3)nn2)CC1	4.702%
CCOC(=O)CCNC(=O)c1nc(OCC)ccc1Cl	0.03346%
Cc1cnn(CC2CCCN2C(=O)c2ccccc2-n2cnnn2)c1 (stereo not given)	0.1021%
CCn1ccnc1CN1CCN(CCOc2ccc(C#N)cc2)CC1	-1.845%
C[C@@H]1CN(C(=O)c2cc(Cn3ccc4ccccc43)[nH]n2)C[C@H](C)O1	0.04787%
COc1cc(I)c(Cl)cc1C(=O)N(C)CC(=O)NC(C)(C)C	7.457%
CCN(C)c1ccc(C(=O)NCCCc2ccccn2)cn1	4.731%
COc1ccc(C2CCCN2S(=O)(=O)c2cc(F)ccc2F)cc1 (stereo not given)	-0.09386%
Cc1nn(C)c(C)c1CN(Cc1cccn1-c1ccccn1)C(C)C	-1.265%
c1ccc2sc(N3CCCN(c4ncnc5c4CCNC5)CC3)nc2c1	4.905%
Cc1nn(C)c(C)c1C1COCCN1c1ncnc2c(C)cccc12 (stereo not given)	1.967%

Some entries from above, unchanged:

compound	effect
CN1CCN(C(CNC(=O)c2ccc(Cl)cc2F)c2cccs2)CC1 (stereo not given)	-3.347%
CCn1ccnc1CN1CCN(CCOc2ccc(C#N)cc2)CC1	-1.845%
CC(C)Cc1cc(NC(=O)c2cccnc2)n(C)n1	0.3436%
CCCc1nc(C)c(C(=O)Nc2cccc(C)n2)s1	-3.64%
O=C(c1ccccc1)N1CCCn2c(CN3CCCCC3)nnc2C1	4.004%
O=C(c1cc(Cn2ccc3ccccc32)[nH]n1)N1CCOCC1	4.189%
CCN1C(=O)CC[C@@H]2[C@H]1CCN2S(=O)(=O)Cc1ccc(C)cc1	1.853%
CCN(C)c1ccc(C(=O)NCCCc2ccccn2)cn1	4.731%
CC(C)c1nc(C2CCCN2C(=O)c2cc(Cl)c[nH]2)no1 (stereo not given)	5.439%

Source: ChEMBL document CHEMBL3988442, “University of Dundee, Small-Polar-MMV Screening Library” (2021).